# In PubChem BioAssay AID1259354 (Paczesny and Yang Labs, IUPUI and University of Michigan, 2018):
# The chains behind the UniProt entries cited, without tags or fusion partners. Where a name states a change or a piece, a line headed by the entry shows the natural chain unless it says otherwise.
# UniProt Q01638: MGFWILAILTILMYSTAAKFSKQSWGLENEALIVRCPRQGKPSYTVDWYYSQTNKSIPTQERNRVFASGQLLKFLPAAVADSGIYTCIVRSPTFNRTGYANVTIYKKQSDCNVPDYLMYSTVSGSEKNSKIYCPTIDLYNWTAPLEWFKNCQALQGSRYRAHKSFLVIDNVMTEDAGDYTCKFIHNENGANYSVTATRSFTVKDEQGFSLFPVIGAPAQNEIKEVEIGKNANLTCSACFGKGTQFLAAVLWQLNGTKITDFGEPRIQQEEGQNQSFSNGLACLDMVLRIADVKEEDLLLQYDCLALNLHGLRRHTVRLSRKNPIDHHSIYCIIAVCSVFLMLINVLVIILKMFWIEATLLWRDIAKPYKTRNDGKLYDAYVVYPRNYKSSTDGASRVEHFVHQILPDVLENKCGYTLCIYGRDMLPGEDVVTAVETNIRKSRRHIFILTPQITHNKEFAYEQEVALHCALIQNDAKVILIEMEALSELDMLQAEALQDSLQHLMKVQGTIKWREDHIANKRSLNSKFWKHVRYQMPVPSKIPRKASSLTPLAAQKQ
# The whole screen tested about 78,000 compounds, of which about 1,800 (2.3%) were called active. The inconclusive results got no clear call from the source; some entries with a clear call stand among them for comparison. Rule as the data show it: active = inhibition above about 30%; inconclusive = mostly about 10% to 28%; inactive = weaker than that.
# Target: Interleukin-1 receptor-like 1 (Homo sapiens) (UniProt Q01638)
# Assay: blocks human ST2 binding to IL-33, primary screen, biochemical, AlphaLISA (AID 1259354)
# Conditions: AlphaLISA ST2-Fc/biotin-IL-33 interaction, 1 h; at 17 µM, hits give high values
row,SMILES,inhibition
1,Cc1ccnc(CC(C)N(C)C(=O)c2cc3cnccc3nc2C)c1 (stereo unspecified),inconclusive: 14%
2,CN(C)c1ncnc2c1C(c1ccc(Br)cc1)c1c(ncnc1N(C)C)O2,inactive
3,Fc1ccc(Nc2c(-c3ccco3)nc3ccc(Cl)cn23)cc1,inconclusive: 25%
4,CCCCc1nnc(NC(=O)COc2cc(C)cc(C)c2)s1,inconclusive: 20%
5,CC(C)C(O)(CC#CCN1CCCC1)c1ccccc1 (stereo unspecified),inconclusive: 15%
6,COc1ncc(CN(C)C(C)c2ccccn2)cn1 (stereo unspecified),inconclusive: 10%
7,Cc1cc(Cn2ccnc2-c2ccc(C(=O)O)cc2)no1,inconclusive: 14%
8,COc1ccc(CCn2c(SCC#N)nc3c(sc4ccccc43)c2=O)cc1OC,inconclusive: 21%
9,COc1ccc(C2C(C(=O)N3CCCCCC3)c3cc(OC)c(OC)cc3C(=O)N2C)cc1 (stereo unspecified),inconclusive: 10%
10,COc1ccc(CC(=O)N2CC[C@@H](CC(=O)O)[C@@H](CCN3CCOCC3)C2)cc1,inconclusive: 16%
11,Cc1cccc(NC(=O)COc2ccc([N+](=O)[O-])cc2)c1C,inactive
12,CC(C)CCNC(=O)C1(O)c2cc(Br)ccc2NC(=O)N1c1ccccc1 (stereo unspecified),inconclusive: 14%
13,CCOc1ccccc1C(=O)NC1CC(=O)N(c2cccc(F)c2)C1 (stereo unspecified),inconclusive: 15%
14,CC#CCN1CCC=C(CCNC(=O)C2CCCCC2)C1,inconclusive: 10%
15,CCCOc1ccc(C(=O)Nc2ccccc2[N+](=O)[O-])cc1,active: 39%
16,COc1ccccc1OC1CN(Cc2cc(C)[nH]n2)C1,inconclusive: 10%
17,CC(C)(Oc1ccc2c(c1)CCC2)C(=O)N1CCOC2(CNCCOC2)C1 (stereo unspecified),inconclusive: 13%
18,CCC(=O)Oc1cc2c(C)cc(=O)oc2cc1Cl,inactive
19,COc1ccccc1CN1C(=O)CCC1(C)C(=O)NC1CCCCC1 (stereo unspecified),inconclusive: 15%
20,c1cncc(-c2nnc([C@H]3CCNC3)o2)c1,inactive
21,Cc1nn(-c2ccccn2)c(C)c1[C@@H]1C=C[C@@H](NC(=O)c2ccco2)C1,inconclusive: 16%

row,SMILES,inhibition
1,c1ccc2oc(CN3Cc4[nH]cnc4C[C@H]3c3nc(-c4ccc5c(c4)OCO5)no3)cc2c1,active: 61%
2,Cc1ncc2c(c1CNC(=O)/C=C/c1cccs1)CCN(C(=O)c1ccc(F)cc1)C2,inconclusive: 13%
3,CC#CC(=O)N1CCC(n2nccc2NC(=O)CC(C)C)CC1,inconclusive: 15%
4,CCCc1nnc2sc(C3CCCN(c4ccccn4)C3)nn12 (stereo unspecified),inconclusive: 16%
5,COc1ccc2[nH]cc(CCNC(=O)c3ccc([N+](=O)[O-])cc3)c2c1,inconclusive: 28%
6,CCCCC1C=CCN1C(=O)c1cc(S(N)(=O)=O)ccc1F (stereo unspecified),inconclusive: 10%
7,O=c1/c(=C/c2cccnc2)sc2n1CN(c1ccc([N+](=O)[O-])cc1)CN=2,inconclusive: 22%
8,CCOC(=O)c1oc2ccccc2c1NC(=O)COc1ccccc1OC,inactive
9,COc1ccc(C2C(C(=O)NCc3ccccn3)c3cc(OC)c(OC)cc3C(=O)N2C)cc1 (stereo unspecified),inconclusive: 12%
10,Cc1nnc([C@H]2CCN(S(=O)(=O)c3cccc(C(F)(F)F)c3)C2)o1,inconclusive: 10%
11,CCCCC(=O)Nc1ccc(NC(=O)c2ccc(C(C)C)cc2)cc1OC,inactive
12,CN1C(=O)C2(CCN(C(=O)CCc3cc(=O)[nH]o3)CC2)c2ccccc21,inconclusive: 26%
13,Cc1sc(Nc2ccccc2)nc1-c1ccccc1,inconclusive: 11%
14,O=C(NC[C@H]1O[C@@H](CO)[C@@H](O)[C@H]1N1CCN(c2ccccn2)CC1)Nc1ccc(F)cc1F,inconclusive: 27%
15,O=C(CN1CCCC1)OCCCc1ccccc1,inconclusive: 18%
16,COc1cc(N2CCCC(OCc3ccccn3)C2)ncn1 (stereo unspecified),inconclusive: 11%
17,COC(=O)c1ccccc1NC(=O)c1cc(-c2ccccc2OC)on1,inactive
18,O=C(CSc1nc2ccccc2o1)Nc1ccc2c(c1)OCO2,inconclusive: 17%
19,CC1(C)CC(=O)C2=C(C1)N(Cc1ccccc1)C(N)=C(C#N)C2c1ccccc1 (stereo unspecified),inconclusive: 13%
20,CC(NC(=O)C1(O)c2ccccc2NC(=O)N1c1ccccc1)c1ccccc1 (stereo unspecified),inconclusive: 11%
21,CC(C)(O)CCCC(C)(O)c1ccc(C(=O)O)cc1O (stereo unspecified),inconclusive: 12%

# Single values from the results shown:
# CC(C)C(O)(CC#CCN1CCCC1)c1ccccc1 (stereo unspecified) – inhibition: inconclusive: 15%
# CCC(=O)Oc1cc2c(C)cc(=O)oc2cc1Cl – inhibition: inactive
# Cc1nn(-c2ccccn2)c(C)c1[C@@H]1C=C[C@@H](NC(=O)c2ccco2)C1 – inhibition: inconclusive: 16%

# Going on with the list:

row,SMILES,inhibition
1,Cc1csc2ncc(C(=O)Nc3cccc(F)c3)c(=O)n12,inactive
2,Cc1ccc(N2CC(NC(=O)c3ccccc3Br)CC2=O)cc1 (stereo unspecified),inconclusive: 15%
3,CCn1cc(-c2cnc3ccccc3c2)c(C)n1,inconclusive: 10%
4,CCC(c1ncnn1C)n1ccnc1-c1ccsc1 (stereo unspecified),inactive
5,O=[N+]([O-])c1ccc(C(O)CSc2ncnc3nc[nH]c23)cc1 (stereo unspecified),inactive
6,Cc1ccccc1Nc1c(-c2ccco2)nc2ccc(Br)cn12,inconclusive: 22%
7,COc1ccc(CNC(=O)CC[C@H]2CNC(=O)[C@@H]3[C@@H](CCN3Cc3ccc(OC)cc3)N2C)cc1,inconclusive: 17%
8,Cc1ncc2c(c1CNC(=O)CSc1ccccc1)CCN(C(=O)/C=C/C(C)C)C2,inactive
9,COc1cccc(C(=O)Nc2nnc(N=Cc3ccc([N+](=O)[O-])s3)s2)c1,inactive
10,COc1ccc(-c2nnn(CC(=O)Nc3ccc(OC(F)(F)Cl)cc3)n2)cc1,inconclusive: 25%
11,CO[C@@]1(NC(=O)CSCC#N)C(=O)N2C(C(=O)O)=C(CSc3nnnn3C)CS[C@@H]21,inconclusive: 15%
12,Cc1ccc(-c2[nH]ncc2CN2CCN(c3ccccn3)CC2)cc1C,inconclusive: 21%
13,COc1ccc(OC)c(-c2cc(Cl)c3c(c2)CC(CNC(=O)c2cncs2)O3)c1 (stereo unspecified),inconclusive: 14%
14,CCCNC(=O)c1ccc(-c2cccc3cnccc23)o1,inactive
15,CCNc1nc(NC(C)C)nc(SCCOc2ccc(C)cc2)n1,inconclusive: 12%
16,COc1ccc(O)c(CN(C)CCN(C)C)c1,inconclusive: 18%
17,CCOc1ccc(C2CC(=O)N3CN(c4ccc(OC)cc4)CSC3=C2C#N)cc1 (stereo unspecified),inconclusive: 22%
18,O=C(Nc1cccc(Cl)c1)c1noc2c1CCCCC2,inconclusive: 18%
19,CC(=O)c1ccc(NC(=O)c2cnc3scc(C)n3c2=O)cc1,inactive

# Taken from the listing for reference:
row,SMILES,inhibition
13,CCOc1ccccc1C(=O)NC1CC(=O)N(c2cccc(F)c2)C1 (stereo unspecified),inconclusive: 15%
14,CC#CCN1CCC=C(CCNC(=O)C2CCCCC2)C1,inconclusive: 10%
